This assay is described as follows: qHTS Assay for Lipid Storage Modulators in Drosophila S3 Cells.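 On cell number change: cells counted by Cell Tracker Red CMTPX staining in the red channel.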 As to conditions: BODIPY lipid droplet fluorescence, 18-24 h; for cell number change: measured here: cell count max response, cells fed with added oleic acid. The method in brief:
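Drosophila S3 cells loaded with oleic acid (400 uM, as added) and compounds at several concentrations; lipid droplets imaged by 488-nm laser-scanning cytometry, 500–530 nm intensity and object ratio to cell channel. Percent activity normalized to 20 uM Triacsin C.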

The mark [1] stands for this setting: measured here: lipid fluorescence (Fed channel) AC50, cells fed with added oleic acid.
Setting [2] is: measured here: cell number channel AC50, cells fed with added oleic acid.

Molecules are shown by their SMILES. The list shows a part of the results. The main result of the screen is listed elsewhere. These columns were measured beside it and carry no call. Compounds called inactive in the main read-out are mostly missing here. The note in brackets gives the kind of curve behind each potency; many fits are weak.

In general, AC50 refers to the midpoint of the concentration-response curve, whichever way the signal moves. Low values mean activity at low concentration, high ones activity only at high concentration. As for `O=C(Nc1cccc(C(=O)N2CCOCC2)c1)c1ncn[nH]1`, the cell number change is -2.43%. The AC50 under setting [1] is 0.206 µM [falling, full curve].

Take `CCn1c(C)c(C(C)=O)c(N2CCCCC2)nc1=S`: the cell number change is -34.3%. Under setting [2], the AC50 is 0.651 µM [falling, full curve]. In addition, the AC50 under setting [1] is 0.731 µM [falling, full curve].

`CN1CCN(S(=O)(=O)c2cccc(C(=O)Nc3cccc(S(N)(=O)=O)c3)c2)CC1`: the cell number change worked out at 21%. Besides, the AC50 under setting [2] was 0.13 µM [rising, full curve, poor fit].

As to `NNC(=O)c1cc2cc(Oc3ccccc3)ccc2[nH]1`, the cell number change is 16.7%. For the same compound, under setting [1], the AC50 was 18.4 µM [falling, single point].

In the case of `Nc1ccc(-c2sc(N)nc2-c2ccccc2)cc1`, the cell number change was -5.46%. Moreover, the AC50 under setting [1] is 0.731 µM [rising, single point].

Regarding `COc1ccccc1N(C)S(=O)(=O)c1ccc(C(=O)Nc2ccncc2)cc1`, the cell number change worked out at 6.05%. The AC50 under setting [2] was 1.64 µM [rising, partial curve]. Also, the AC50 under setting [1] was 1.84 µM [rising, partial curve].

`Cc1nn(C)cc1CNC(=O)c1cccc(Cl)c1`: the cell number change came out at 47.5%. Moreover, the half-maximal activity concentration (AC50) under setting [2] is 18.4 µM [rising, single point].

With `CCN(CC)CCNc1nc2c(c(=O)[nH]c(=O)n2C)n1CCCc1ccccc1`, the cell number change is -17.7%.

As to `CC1CCN(c2ccc3nnc(CCC(=O)Nc4ccc(F)c(F)c4)n3n2)CC1`, the cell number change worked out at 14.1%.

As to `O=C(NC(=S)Nc1ccc(N2CCOCC2)cc1)c1ccccc1`, the cell number change is -22.8%. The AC50 under setting [1] was 3.26 µM [falling, single point].

With `CC(=O)Nc1ccc(NC(=O)CSc2nc(C)nc3sc(C)c(C)c23)cc1`, the cell number change was -39.1%. Besides, the AC50 under setting [2] is 32.6 µM [falling, single point]. Moreover, the AC50 under setting [1] is 2.31 µM [rising, partial curve, poor fit].

With `CCC(C)[C@H](NC(=O)NC1CCCc2ccccc21)C(=O)O` (stereo partly drawn), the cell number change was -35.4%. Under setting [2], the AC50 was 25.9 µM [falling, single point]. The AC50 under setting [1] is 0.00461 µM [falling, full curve, poor fit].

As for `CCN(CC(=O)NCc1ccc(F)cc1)C(=O)Cc1ccc(OC)cc1`, the cell number change was determined as 37.8%. Further, the AC50 under setting [2] is 0.651 µM [rising, partial curve].

`Cc1ccc(C(C)C)c(OCC(=O)OCC(=O)NC2CCS(=O)(=O)C2)c1` (stereo not drawn): the cell number change was -4%.

Regarding `COc1ccc(Nc2nc(C)cc(C)n2)cc1Cl`, the cell number change is 23%.

Consider `O=C(NNC(=O)C1CCCO1)c1ccc(Cl)cc1` (stereo not drawn), for which the AC50 under setting [2] is 0.0651 µM [rising, full curve, poor fit].

As to `O=C(CCl)Nc1c[nH]c(=O)[nH]c1=O`, the cell number change was 21.5%.

In the case of `CCOC(=O)/C(O)=C(\C#N)c1nc2ccccc2[nH]1`, the cell number change stood at 55.1%. For the same compound, under setting [1], the concentration at half-maximal activity (AC50) was 0.00411 µM [rising, full curve, poor fit].

Turning to `COc1cc(/C=C/C(=O)O)cc(S(=O)(=O)Nc2ccccc2C(=O)NCCc2ccccc2)c1OC`, the AC50 under setting [1] was 12.6 µM [rising, single point].

As for `O=C(COC(=O)c1ccccc1Cl)NCCC1=CCCCC1`, the cell number change is -34.1%. The AC50 under setting [1] was 0.116 µM [falling, full curve].

With `CCOCCCn1c(=S)[nH]c2cc(C(=O)NCCc3ccc(OC)c(OC)c3)ccc2c1=O`, the cell number change worked out at 8.75%. Under setting [1], the AC50 is 1.3 µM [falling, full curve].

`CC(C)N1CCN(C(=O)c2ccc(NC(=O)c3ccc(Br)o3)cc2)CC1`: the cell number change turned out to be 19.4%. For the same compound, under setting [1], the AC50 was 16.4 µM [rising, single point].

Consider `Cc1cc(NC(=O)CSCC(=O)N2CCN(c3cccc(C)c3C)CC2)no1`, for which the cell number change was -42.9%. Also, the AC50 under setting [2] is 29.1 µM [falling, single point]. Besides, the AC50 under setting [1] was 29.1 µM [falling, single point].

Regarding `Cc1cc(F)ccc1S(=O)(=O)Nc1c(C)n(C)n(-c2ccccc2)c1=O`, the AC50 under setting [1] is 23.1 µM [rising, partial curve, poor fit].

In the case of `Cc1ccc(NC(=O)Nc2ccc([N+](=O)[O-])cc2)nc1`, the cell number change turned out to be 16.9%. The AC50 under setting [2] is 6.51 µM [rising, single point]. For the same compound, the AC50 under setting [1] was 3.26 µM [rising, partial curve].

Take `CCNC(=S)N/N=C/c1cc(Br)cc(Br)c1OC`: the cell number change came to 29.7%. Besides, under setting [2], the AC50 is 0.291 µM [rising, full curve, poor fit]. Further, the AC50 under setting [1] is 1.84 µM [rising, full curve].

With `COc1ccccc1NC(=O)c1ccccc1NC(=O)c1cccs1`, the cell number change was 9.24%.

As to `O=C(CN1CCN(S(=O)(=O)c2ccc(Br)cc2)CC1)N/N=C/c1ccccc1C(=O)O`, the cell number change is -6.6%. Also, the AC50 under setting [2] is 6.51 µM [falling, single point].

As for `COC(=O)c1sccc1NC(=O)Nc1ccc(C(C)=O)cc1`, the cell number change was -20.2%. The AC50 under setting [1] is 29.1 µM [falling, single point].

For the compound `CC1CCC(N(CCCN)Cc2ccco2)CC1C` (stereo not drawn), the cell number change was -26.2%. In addition, the AC50 under setting [1] was 0.291 µM [falling, full curve, poor fit].

As to `C/C(=N\NC(=O)CNc1cccc(C(F)(F)F)c1)c1ccc(Br)cc1`, the cell number change was -56.9%. For the same compound, the half-maximal activity concentration (AC50) under setting [2] is 8.2 µM [falling, partial curve]. In addition, under setting [1], the AC50 is 9.2 µM [falling, partial curve].

Consider `CS(=O)(=O)N(CC(=O)N1CCCC1)c1ccc(Cl)cc1Cl`, for which the cell number change stood at 19.1%.

Turning to `CCCCCCCCCCCCCCCC[n+]1ccc(/C=N/O)cc1`, the cell number change is -78.5%. Also, under setting [2], the AC50 was 20.6 µM [falling, partial curve]. In addition, under setting [1], the AC50 is 1.3 µM [falling, full curve].

On to `Cc1nnc(NC(=O)c2ccc(-c3cccc(C(F)(F)F)c3)o2)s1`, for which the cell number change is -8.25%. In addition, under setting [1], the AC50 was 4.11 µM [rising, partial curve, poor fit].

For the compound `CC1(C)C2CCC1(CS(=O)(=O)N1CCOCC1)C(=O)C2` (stereo not drawn), the cell number change was -6.47%. In addition, the AC50 under setting [1] is 0.116 µM [falling, full curve, poor fit].

As for `COc1ccc(/C=C2/Sc3ccc(C(=O)N4CCOCC4)cc3NC2=O)cc1OC`, the cell number change was -9.06%. For the same compound, under setting [2], the AC50 was 0.116 µM [rising, full curve, poor fit].

Turning to `CC(C)CC(=O)NC(=S)Nc1cccc(NC(=O)c2ccccc2Cl)c1`, the cell number change was 31.5%. The AC50 under setting [2] was 3.26 µM [rising, full curve, poor fit]. Also, the AC50 under setting [1] was 1.64 µM [rising, partial curve].

Take `Fc1ccc2cnc(-c3ccccc3)c(-c3cccc(C(F)(F)F)c3)c2c1`: the cell number change was -58.9%. Also, the AC50 under setting [2] was 25.9 µM [falling, single point].

As to `O=C(N/N=C/c1ccc([N+](=O)[O-])o1)c1ccccc1-n1cccc1`, the cell number change was determined as 10.9%. Also, the AC50 under setting [1] is 20.6 µM [falling, partial curve].

`COc1cccc(/C=N/NC(=O)c2[nH]nc3c2CCc2ccccc2-3)c1O`: the cell number change is -69.6%. Further, the AC50 under setting [2] was 29.1 µM [falling, single point].

As to `COC(=O)C(Cc1ccc(O)cc1)NC(=O)C12CC3CC(CC(C3)C1)C2` (stereo not drawn), the cell number change was -54.2%.

As for `O=c1c2cc3c(=O)n(-c4ccccc4O)c(=O)c3cc2c(=O)n1-c1ccccc1O`, the cell number change is -45.8%. Further, under setting [2], the AC50 was 0.0259 µM [falling, full curve]. Under setting [1], the concentration at half-maximal activity (AC50) is 23.1 µM [falling, partial curve, poor fit].

Consider `CCOc1cccc(-c2nc(C(N)=O)c3[nH]c(=O)n(-c4cccc(Cl)c4)c3n2)c1O`, for which the cell number change is 15.5%. In addition, the AC50 under setting [1] is 7.31 µM [rising, partial curve, poor fit].

For the compound `COc1cc(/C=N/NC(=O)c2ccc(CSc3nc4ccccc4[nH]3)cc2)cc(OC)c1OC`, the cell number change was -62.8%. Moreover, the AC50 under setting [2] is 29.1 µM [falling, partial curve, poor fit]. Besides, the AC50 under setting [1] was 29.1 µM [falling, partial curve, poor fit].

Turning to `CCCCOc1ccc(S(=O)(=O)Nc2cccnc2)cc1`, the cell number change was -23.3%.

Regarding `Cc1cccc(NC(=O)c2ccc(S(=O)(=O)N3CC(C)OC(C)C3)cc2)n1` (stereo not drawn), the cell number change came out at 19.1%. In addition, under setting [1], the AC50 is 29.1 µM [rising, single point].

Consider `O=C(O)CNC(=O)/C=C/c1c(Cl)cccc1Cl`, for which the cell number change was -35.9%. Moreover, the AC50 under setting [2] was 29.1 µM [falling, single point]. For the same compound, the concentration at half-maximal activity (AC50) under setting [1] is 29.1 µM [falling, single point].

On to `Cc1ccc(CNC(=O)C2CCN(S(=O)(=O)N3CCCC3)CC2)cc1`, for which, under setting [1], the AC50 is 29.1 µM [rising, single point].

With `O=C(O)CNC(=S)NCc1ccccc1`, the cell number change is 90.3%.

Regarding `COc1ccc(COn2c(=O)c(C)[n+]([O-])c3ccccc32)cc1OC`, the cell number change stood at 2.5%. The AC50 under setting [1] was 0.259 µM [rising, full curve, poor fit].

In the case of `O=S(=O)(Nc1cc(Cl)ccc1-n1cncn1)c1cc(Br)ccc1Br`, the cell number change is -44.5%. The half-maximal activity concentration (AC50) under setting [2] was 8.2 µM [falling, partial curve].

`O=C(CN1C(=O)NC2(CCCC2)C1=O)Nc1ccc(S(=O)(=O)N2CCOCC2)cc1`: the cell number change stood at 37.6%.

With `CC(C)Oc1ccc(NC(=O)CCC(=O)O)cc1`, the cell number change amounted to 18.3%. Further, the AC50 under setting [2] was 0.092 µM [rising, full curve, poor fit].

As to `C=CCn1c(O)c(C2=c3ccccc3=NC2=O)c2ccccc21`, the cell number change was -79.8%. Besides, the AC50 under setting [2] is 25.9 µM [falling, partial curve]. In addition, the AC50 under setting [1] is 1.84 µM [falling, partial curve, poor fit].

Take `CCN(CC)CCn1c2c(c(SCC(=O)Nc3cc(C)on3)nc1=O)CCCC2`: the cell number change worked out at 75%. In addition, the AC50 under setting [2] is 6.51 µM [falling, single point].

As for `COc1ccc(OC)c(S(=O)(=O)N2CCCC(C(=O)NCCN3CCOCC3)C2)c1` (stereo not drawn), the cell number change was -0.855%. The AC50 under setting [1] is 0.0058 µM [falling, full curve, poor fit].

Consider `CN(C)/C=C(/C(=O)c1ccc(Cl)cc1Cl)S(=O)(=O)c1ccc(Cl)cc1`, for which the cell number change is -30.2%. Besides, under setting [2], the concentration at half-maximal activity (AC50) is 1.64 µM [falling, full curve, poor fit]. In addition, under setting [1], the AC50 is 1.46 µM [falling, partial curve].

In the case of `O=C(Nc1ccc(N2CCN(C(=O)c3ccco3)CC2)cc1)c1ccccc1F`, the cell number change came out at 2.38%. Further, the concentration at half-maximal activity (AC50) under setting [1] is 0.0651 µM [rising, partial curve, poor fit].

Regarding `O=C(c1ccc2c3c(cccc13)CC2)C1CCCN(C(=O)c2ccc(=O)[nH]c2)C1` (stereo not drawn), the cell number change was -6.74%. Besides, under setting [1], the AC50 was 0.0116 µM [rising, full curve, poor fit].
